The text below walks through data of article PMC7817014.

No constants are given. Whether binding was seen depends on the method and setting. In cells and extracts the contact can be indirect. Where a sequence is shown, tags or fusion partners need not be part of it.

This experiment deals with MYC epitope-tagged CCDC114 (mouse). The experiment in a line: co-IP; HEK293T cells co-transfected for 24 h, lysed in RIPA buffer; immunoprecipitation with mouse monoclonal antibodies to HA, MYC or GFP and protein A-agarose beads; immunoblot with rabbit polyclonal antibodies to HA, MYC or GFP. (Immunoblotting shows a protein as a band on a membrane.)

B1: HA-tagged CFAP53 (protein, UniProt Q9D439 1-514)
chain: MYSQQFGTVPREFKGPTPKAVIIRAKPPKAQRAEQHLKRIQRSYHKYHTTLASIKSNEENRLKCDWIQRNNHKTFDSLVQARVQDAMQGFVINTEERRNKLRELLASEENEYFSEMQLKGETIEEKKDKMRERTKLLREKKEKERQEFVAEKLDQQFRERCEELRTKLASIHEKKVVEERNAQIEFNKELKRQKLVEEHLFARLWEEDRLAKERREAQEEKRQRELVQNTRLGLDAQVTSIQAQRQGARRMKEEEARILEQNKAQIKREDEQEKLQKQKRRQETRSSLKKAVQDKIESMQREYREDLDLNMKLVGRALQDLQDEADKKKQKREEMGREQKIYNDYLMQRREEEKAQEKELNRLLEDIKAKKLAEKDRELALQRAARKQLMNEVMNTRKLQVQERLQRKLREQEELALHEQRISESLKVLHQEDMEDFARRCALAEEYRNQLQMQIAHQQQAREAEKEEERQEFEAGLAANKACLDKIQRILSENQALSQNVHPMRRGYPDKPPL
Take B1: the binding entry is listed as “no binding”.
